# Some of the results follow. The main result of the screen is listed elsewhere. These columns were measured beside it and carry no call. Compounds called inactive in the main read-out are mostly missing here. The note in brackets gives the kind of curve behind each potency; many fits are weak.
# Assay: qHTS Assay for Lipid Storage Modulators in Drosophila S3 Cells;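 as to cell number change: cells counted by Cell Tracker Red CMTPX staining in the red channel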
# Conditions: BODIPY lipid droplet fluorescence, 18-24 h; for cell number change: measured here: cell count max response, cells fed with added oleic acid
# How it was run: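 Laser-scanning cytometry quantifies lipid droplet accumulation (500–530 nm total intensity; droplet/cell object ratio) in oleic acid-fed (400 uM added) Drosophila S3 cells treated with a concentration series. 20 uM Triacsin C defined 100% inhibition.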
# [1] = measured here: cell number channel AC50, cells fed with added oleic acid
# [2] = measured here: lipid fluorescence (Fed channel) AC50, cells fed with added oleic acid
SMILES,AC50 [1],cell number change [%],AC50 [2]
O=C(Nc1cccc(C(=O)N2CCOCC2)c1)c1cccnc1,"0.00651 µM [falling, full curve, poor fit]",,
COc1cc(C(=O)Nc2nnc(SC)s2)c([N+](=O)[O-])cc1OC,"1.3 µM [falling, partial curve]",0.228,"3.66 µM [falling, single point]"
O=C(/C=C/c1ccccc1)OCCCCN=C1NS(=O)(=O)c2ccccc21,,-8.92,
O=C(CN1C(=O)COc2ccccc21)NCc1ccc(C(=O)O)cc1,"4.61 µM [falling, full curve]",-62.7,"23.1 µM [falling, single point]"
CCOC(=O)Cn1c(C)nc2ccccc21,"0.13 µM [falling, full curve, poor fit]",-10.9,
CCN1C(=O)C(=Cc2cccc(OC)c2Oc2ccc([N+](=O)[O-])cc2[N+](=O)[O-])SC1=S,,4.13,"4.11 µM [falling, single point]"
c1ccc(-c2nc3cc4ccccc4cc3[nH]2)nc1,"1.64 µM [rising, full curve]",118,"2.31 µM [rising, full curve]"
COc1cc(/C=C/C(=O)c2ccc(F)cc2)cc(OC)c1OC,,-16.6,"18.4 µM [falling, single point]"
COc1cccc(C(=O)NCCSCc2c(F)cccc2Cl)c1,,2.55,
O=C(CSc1nncs1)NC1CCCc2ccccc21 (configuration not stated),,-49.8,"32.6 µM [falling, partial curve, poor fit]"
Cc1nc2nc(-c3ccccc3)cn2nc1C,,11.9,"29.1 µM [falling, single point]"
CCOc1ccc(S(=O)(=O)N(CC(=O)O)c2ccc(C)cc2)cc1,,-161,
COc1ccc(C(=O)CCC(=O)N2CCN(c3ccc([N+](=O)[O-])cc3)CC2)cc1,,5.07,
COc1cc(-c2nnn(CC(=O)NC3CCS(=O)(=O)C3)n2)ccc1OCc1ccccc1 (configuration not stated),"29.1 µM [rising, single point]",42,
O=C(O)CCOc1ccc2c(c1)OCCO2,,7.35,"0.00517 µM [falling, full curve, poor fit]"
Brc1ccc(OCCCOc2cccc3cccnc23)cc1,,-8.03,"0.184 µM [rising, full curve]"
CCN(CC)S(=O)(=O)c1cc(NC(=O)CCNC(=O)c2ccco2)ccc1C,,4.03,
CN=c1scc(-c2ccc(Br)cc2)n1C,"0.651 µM [falling, full curve, poor fit]",-24.4,
CNC(=S)N1CCC(NC(=O)C23CC4CC(CC(C4)C2)C3)CC1,,5.03,"1.46 µM [falling, partial curve, poor fit]"
CC1CCN(C(=O)CSc2ccc(-c3ccccc3)nn2)CC1,"0.92 µM [rising, partial curve, poor fit]",30.9,
COc1ccc(S(=O)(=O)n2nc(C)cc2C)cc1OC,,-4.56,"29.1 µM [rising, single point]"

# Reprinted at random: two compounds from above
SMILES,AC50 [1],cell number change [%],AC50 [2]
COc1cc(-c2nnn(CC(=O)NC3CCS(=O)(=O)C3)n2)ccc1OCc1ccccc1 (configuration not stated),"29.1 µM [rising, single point]",42,
CCN1C(=O)C(=Cc2cccc(OC)c2Oc2ccc([N+](=O)[O-])cc2[N+](=O)[O-])SC1=S,,4.13,"4.11 µM [falling, single point]"

# More results

SMILES,AC50 [1],cell number change [%],AC50 [2]
Nc1ccccc1Sc1nc2ccccc2[nH]1,,-30,"29.1 µM [falling, single point]"
COc1ccc(C(CNC(=O)C(C)Oc2ccc(Br)cc2)N2CCCC2)cc1 (configuration not stated),,25,
COc1ccc2c(c1)C(=O)N(c1ccccc1OC)C(=O)C2(C)C,"0.116 µM [rising, full curve, poor fit]",9.75,"0.206 µM [rising, full curve, poor fit]"
CN(c1ccccc1C(=O)Nc1cccc(Br)c1)S(=O)(=O)c1ccccc1,,4.92,
C#CCOc1ccc2c(C)cc(=O)oc2c1,,-12.1,"0.116 µM [rising, full curve, poor fit]"
COC(=O)C1=C(C)NC(=O)CC1c1cccc(Cl)c1Cl (configuration not stated),"9.2 µM [falling, partial curve]",-40.2,"5.8 µM [falling, partial curve]"
Cc1ccc(S(=O)(=O)NCc2ccccc2)cc1C(=O)NCCc1ccc(S(N)(=O)=O)cc1,,-5.78,"0.00461 µM [rising, full curve, poor fit]"
O=C(O)CCC(=O)c1ccc2c(c1)OCCO2,,11.8,
Cc1csc(NC(=O)C2=COCCO2)n1,,-26.9,
NNC(=O)c1ccc([N+](=O)[O-])c(CS(=O)(=O)c2ccc(Cl)cc2)c1,"5.17 µM [falling, full curve, poor fit]",-36.7,"29.1 µM [falling, single point]"
O=C(CSc1ccc(Cl)cc1)N1CCN(c2ncc(C(F)(F)F)cc2Cl)CC1,,,"18.4 µM [rising, single point]"
CC(=O)OC1COC(N2CCc3cc([N+](=O)[O-])ccc32)C(OC(C)=O)C1OC(C)=O (configuration not stated),,21,"29.1 µM [rising, single point]"
CN(C)S(=O)(=O)c1cccc(NC(=S)NC(=O)c2ccco2)c1,,-13.9,"3.26 µM [rising, partial curve, poor fit]"
Cc1c(Nc2cc(Cl)c3nonc3c2[N+](=O)[O-])c(=O)n(-c2ccccc2)n1C,"14.6 µM [falling, partial curve]",-89.6,"4.61 µM [falling, partial curve]"
COc1cccc(C(=O)NNC(=O)C(=O)Nc2ccc(OC)cc2OC)c1,,-7.69,
COc1ccc(C2CC(=O)C=C(NCc3ccc4c(c3)OCO4)C2)cc1 (configuration not stated),"0.58 µM [rising, full curve, poor fit]",1.21,
Cc1ccc(/C=N\NC(=O)c2csnn2)cc1,,0.69,
CCCS(=O)(=O)N1CCN(C(=O)c2cc(OC)cc(OC)c2)CC1,"23.1 µM [rising, single point]",49.1,
CCOC(=O)C1=C(CC)OC(N)=C(C#N)C1c1ccc(F)cc1F (configuration not stated),"23.1 µM [falling, single point]",-38.4,"29.1 µM [falling, single point]"
CC(=O)Nc1c(C(=O)Nc2ccc3c(c2)OCO3)oc2ccccc12,,-10.7,"1.46 µM [falling, partial curve]"
